Some results were stated once for a whole list of compounds, not compound by compound.
Test system: An. arabiensis (Kingani), An. gambiae s.s. (Kisumu), Ae. aegypti (Bagamoyo)
Assay: Semi-field system (SFS), all species tested
Type: in vivo, Anopheles and Aedes mosquitoes
Conditions: 12-hour recapture time
Protocol: The study was conducted under ambient condition in the semi-field system (SFS) located in Bagamoyo district at the Ifakara Health Institute at Bagamoyo branch in Tanzania. Bagamoyo is located on the coast region of the Indian Ocean between latitudes 6° and 8′ South and between longitudes 30° and 37′ East. The district experience annual rainfall ranging between 800 mm and 1000 mm, temperature ranging between 22° C. and 33° C., and mean relative humidity of 73%.
Three laboratory-reared mosquito strains, aged 6 days old, sugar starved for 8 hours, nulliparous females, reactive to human odor on the day of the experiment, have been used for this experiment. […]
Volunteers wore shorts, closed shoes and bug jacket to ensure mosquitoes had access to the lower limbs only. […] After application, an empty plastic cups were weighed to determine the quantity of repellent left in the cup. […]
During the last 9 days, we used same volunteers, compartments and rotation schedule. […] Volunteers recorded a time the first mosquito of each species landed on the limb and the recaptured mosquito was placed in a paper cup labelled with volunteers unique identification code, time of collection, position and treatment code. […]

CCN(CC)C(=O)c1cccc(C)c1 [20% DEET, N,N-diethyl-3-méthylbenzamide]
protective efficacy: above 93%

Reference: patent US12616196B2, “Long protection mosquito repellent ointment” (MAIA AFRICA SAS, priority 2019, dated 2026)
